The supplement of paper PMC8166895
Structures can show the parent of a compound that is named as a salt. This is one part of the list. Most values lie at the level of the controls, where differences are scatter.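 A single-replicate pilot screen of approved drugs and clinical or known-target compounds measured melting temperature via differential scanning fluorimetry. Top stabilizing hits raised the melting point by 2 °C or more; negative shifts indicate destabilization.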

Each compound was assayed on SARS-CoV-2 main protease (Mpro, nsp5) (assay: thermal shift ΔTm of Mpro relative to plate average Tm; higher = stronger thermal stabilization of Mpro (binding)). Details: 10 µM; protein concentration 1 µM.

| SMILES | thermal shift ΔTm of Mpro [°C] |
| --- | --- |
| CS(=O)(=O)Nc1cc(-c2ccc3ncnc(Nc4ccc(F)c(Cl)c4)c3c2)cnc1Cl | 0.063 |
| CCn1cc(C(=O)O)c(=O)c2cc(F)c(N3CCN(C)CC3)cc21 [Pefloxacin Mesylate] | 0.0217 |
| CCn1cc(C(=O)O)c(=O)c2cc(F)c(N3CCN(C)CC3)cc21 [Pefloxacin Mesylate Dihydrate] | 0.0653 |
| N#CN=C(NCCCCCCOc1ccc(Cl)cc1)Nc1ccncc1 | -0.0785 |
| NC(=O)c1[nH]cnc1N [4-Amino-5-imidazolecarboxamide] | 0.0695 |
| CC[C@]12CCCN3CCc4c(n(c5ccccc45)C(=O)C1)[C@@H]32 [Eburnalritardo] | -0.0325 |
| CCOC(=O)c1ccc(N2NC(=O)C(=Cc3ccc([N+](=O)[O-])o3)C2=O)cc1 | 0.588 |
| C#C[C@]1(O)C=C[C@H]2[C@@H]3CCC4=CC(=O)CC[C@@H]4[C@H]3CC[C@@]21CC [Gestodene] | 0.519 |
| Cc1ccc(S(=O)(=O)NCl)cc1 [Chloramine-T] | 1.9 |
| O=[N+]([O-])c1cc(Cl)ccc1S(=O)(=O)c1ccccc1 | -0.118 |
| C[C@@H]1CN(c2c(F)c(N)c3c(=O)c(C(=O)O)cn(C4CC4)c3c2F)C[C@H](C)N1 [Sparfloxacin] | 0.0987 |
| C[C@@H]1O[C@@H]1P(=O)(O)O [Fosfomycin calcium] | 0.083 |
| COc1cc2nccc(Oc3ccc(NC(=O)Nc4ccc(F)cc4F)c(F)c3)c2cc1OC | 0.524 |
| CC1(C)[C@@H](O[C@H]2O[C@H](C(=O)O)[C@@H](O)[C@H](O)[C@H]2O[C@@H]2O[C@H](C(=O)O)[C@@H](O)[C@H](O)[C@H]2O)CC[C@]2(C)[C@H]3C(=O)C=C4[C@@H]5C[C@@](C)(C(=O)O)CC[C@]5(C)CC[C@@]4(C)[C@]3(C)CC[C@@H]12 [Ammonium Glycyrrhizinate] | -0.102 |
| CC1(C)[C@@H](O[C@H]2O[C@H](C(=O)O)[C@@H](O)[C@H](O)[C@H]2O[C@@H]2O[C@H](C(=O)O)[C@@H](O)[C@H](O)[C@H]2O)CC[C@]2(C)[C@H]3C(=O)C=C4[C@@H]5C[C@@](C)(C(=O)O)CC[C@]5(C)CC[C@@]4(C)[C@]3(C)CC[C@@H]12 [Glycyrrhizin (Glycyrrhizic Acid)] | -0.239 |
| NCC(=O)O.[C-]#[O+].[C-]#[O+].[C-]#[O+].[Cl][Ru] | -0.684 |
| Cc1cc(C(=O)CN2CCCC2)c(C)n1-c1ccc(F)cc1 | -0.0782 |
| COc1cc(NC(=O)c2ccc(-c3ccc(Cl)cc3)o2)cc(OC)c1 | 0.131 |
| CCOC(=O)CCC(=O)O[C@H]1[C@H](O[C@@H]2[C@@H](C)[C@H](O[C@H]3C[C@@](C)(OC)[C@@H](O)[C@H](C)O3)[C@@H](C)C(=O)O[C@H](CC)[C@@](C)(O)[C@H](O)[C@@H](C)C(=O)[C@H](C)C[C@@]2(C)O)O[C@H](C)C[C@@H]1N(C)C [Erythromycin Ethylsuccinate] | 0.0253 |
| N#Cc1ccc(Cn2cncc2CN2CCN(c3cccc(Cl)c3)C(=O)C2)cc1 | 0.0422 |
| c1ccc2c(Oc3nc(Nc4ccc(N5CCOCC5)cc4)c4ncn(C5CCCCC5)c4n3)cccc2c1 [Purmorphamine] | -0.0605 |
| C[C@]12C=CC(=O)C=C1CC[C@@H]1[C@@H]2C(=O)C[C@@]2(C)[C@H]1CC[C@]2(O)C(=O)CO [Prednisone] | 0.0569 |
| C=CC(=O)Nc1cccc(Nc2nc(Nc3ccc(NC4CN(CCF)C4)cc3OC)ncc2C(F)(F)F)c1 | 0.228 |
| Cc1cc(Nc2cc(Cl)nc(Oc3ccc([N+](=O)[O-])cc3)n2)n[nH]1 [Autophinib] | -0.0913 |

| SMILES | thermal shift ΔTm of Mpro [°C] |
| --- | --- |
| CS(=O)(=O)Nc1ccc([N+](=O)[O-])cc1Oc1ccccc1 [Nimesulide] | 0.0228 |
| CCn1cc(C(=O)O)c(=O)c2cc(F)c(N3CCNC(C)C3)c(F)c21 (stereo unspecified) [Lomefloxacin] | -0.135 |
| Clc1ccccc1-c1nnc(-c2ccccc2Cl)nn1 [Clofentezine] | -0.039 |
| O=c1c(O)c(-c2ccc(O)cc2)oc2c(O)c(O)cc(O)c12 [Herbacetin] | -0.063 |
| CNC(=C[N+](=O)[O-])NCCSCc1csc(CN(C)C)n1 [Nizatidine] | 0.0104 |
| NC(=O)c1nc(-c2c(F)cccc2Cl)oc1Nc1ccc(C(=O)N2CCOCC2)cc1 | -0.0151 |
| CC(C)CN(C[C@@H](O)[C@H](Cc1ccccc1)NC(=O)O[C@H]1CCOC1)S(=O)(=O)c1ccc(N)cc1 [Amprenavir] | 0.0243 |
| CC(C)[C@H](NC(=O)CCCCCN1C(=O)C=CC1=O)C(=O)N[C@@H](C)C(=O)Nc1ccc(CO)cc1 | -0.951 |
| CCC1=C[C@@H]2CN(C1)Cc1c([nH]c3ccccc13)[C@@](C(=O)OC)(c1cc3c(cc1OC)N(C)[C@H]1[C@@](O)(C(=O)OC)[C@H](OC(C)=O)[C@]4(CC)C=CCN5CC[C@]31[C@@H]54)C2 [Vinorelbine Tartrate] | -0.0755 |
| O=C(NC1CCOCC1)c1ccc(-c2cc(-c3c[nH]nc3-c3ccccn3)ccn2)cc1 | -0.0687 |
| O=C1C(=O)N(Cc2ccc(Cl)c(Cl)c2)c2ccccc21 [Apoptosis Activator 2] | 0.0536 |
| NS(=O)(=O)c1cc2c(cc1Cl)NCNS2(=O)=O [Hydrochlorothiazide] | -0.235 |
| COc1cc(/C=C/C(=O)O)ccc1O [Ferulic Acid] | 0.0506 |
| C[N+]1(C)CCC(=C(c2ccccc2)c2ccccc2)CC1 [Diphemanil Methylsulfate] | -0.0446 |
| CN(C)CCC=C1c2ccccc2C=Cc2ccccc21 [Cyclobenzaprine HCl] | 0.0659 |
| O=C1c2cccc(O)c2C(=O)c2c(O)cc(CO)cc21 [Aloe-emodin] | 0.00146 |
| CN(C)CCc1c[nH]c2ccc(C[C@H]3COC(=O)N3)cc12 [Zolmitriptan] | 0.0927 |
| O=c1[nH]c(=O)n([C@H]2C[C@H](O)[C@@H](CO)O2)cc1F [Floxuridine] | 0.199 |
| O=C(Nc1ccc2[nH]ccc2c1)c1ccccc1 | 0.028 |
| CNNCc1ccc(C(=O)NC(C)C)cc1 [Procarbazine hydrochloride] | 0.0193 |
| OB1OCc2cc(Cl)ccc21 | -0.0217 |
| COc1cc(C)c(/C=C/C(C)=C/C=C/C(C)=C/C(=O)O)c(C)c1C [Acitretin] | 0.638 |
| CC(C)(F)C[C@H](N[C@@H](c1ccc(-c2ccc(S(C)(=O)=O)cc2)cc1)C(F)(F)F)C(=O)NC1(C#N)CC1 [Odanacatib (MK-0822)] | -0.161 |
| CC(C)OC(=O)CCC/C=C\C[C@@H]1[C@@H](CC[C@@H](O)CCc2ccccc2)[C@H](O)C[C@@H]1O [Latanoprost] | -0.206 |

A portion taken from the entries so far, as a working copy:

| SMILES | thermal shift ΔTm of Mpro [°C] |
| --- | --- |
| O=c1[nH]c(=O)n([C@H]2C[C@H](O)[C@@H](CO)O2)cc1F [Floxuridine] | 0.199 |
| O=C(Nc1ccc2[nH]ccc2c1)c1ccccc1 | 0.028 |
| CNNCc1ccc(C(=O)NC(C)C)cc1 [Procarbazine hydrochloride] | 0.0193 |
| OB1OCc2cc(Cl)ccc21 | -0.0217 |

(cont.)

| SMILES | thermal shift ΔTm of Mpro [°C] |
| --- | --- |
| C[C@@]12N[C@@H](Cc3ccccc31)c1ccccc12 [(-)-MK 801 Maleate] | 0.128 |
| CN(C)c1ccc(C=C2C(=O)Nc3ccccc32)cc1 | -0.0682 |
| CC(c1cc2ccccc2s1)N(O)C(N)=O (stereo unspecified) [Zileuton] | 0.129 |
| O=C(O)C(Cc1ccccc1[N+](=O)[O-])=NNc1nc(-c2ccc(Cl)c(Cl)c2)cs1 (mixture of isomers) | 0.0564 |
| C[C@@H]1C(=O)O[C@H]2C[C@@]34[C@H]5C[C@@H](C(C)(C)C)[C@]36[C@@H](OC(=O)[C@@H]6O)O[C@@]4(C(=O)O5)[C@]21O [Ginkgolide A] | 0.0697 |
| CC1=C(C(=O)OC2CCCCC2)C(c2ccc([N+](=O)[O-])cc2)C2=C(CC(C)(C)CC2=O)N1 (stereo unspecified) | 0.282 |
| OC[C@@H](O)[C@H]1O[C@@H]2O[C@H](C(Cl)(Cl)Cl)O[C@@H]2[C@H]1O [Alpha-Chloralose] | 0.267 |
| NC(=O)c1ncn([C@@H]2O[C@H](CO)[C@@H](O)[C@H]2O)c1N [Acadesine] | 0.0663 |
| CC1=C(/C=C/C(C)=C/C=C/C(C)=C/C(=O)Nc2ccc(O)cc2)C(C)(C)CCC1 [Fenretinide] | 0.285 |
| CC(=O)OC12COC1CC(O)C1(C)C(=O)C(O)C3=C(C)C(O)CC(O)(C(OC(=O)c4ccccc4)C21)C3(C)C (stereo unspecified) [10-Deacetylbaccatin-III] | 0.0232 |
| C[N+]12CCC(CC1)C(OC(=O)C(O)(c1ccccc1)c1ccccc1)C2 (stereo unspecified) [Clidinium bromide] | 0.0437 |
| C#C[C@]1(O)CC[C@H]2[C@@H]3[C@H](C)CC4=C(CCC(=O)C4)[C@H]3CC[C@@]21C [Tibolone] | 0.15 |
| CC(C)(C)c1cc(C(=O)C(C#N)=NNc2cccc(Cl)c2)no1 | 0.958 |
| CCc1nc(C(N)=O)c(Nc2ccc(N3CCC(N4CCN(C)CC4)CC3)c(OC)c2)nc1NC1CCOCC1 [Gilteritinib] | 0.0805 |
| O=C(O)COc1nn(Cc2ccccc2)c2ccccc12 [Bendazac L-lysine] | 0.0817 |
| S=C=Nc1ccc(N=C=S)cc1 [Biscomate] | 0.188 |
| OC[C@@H](O)[C@@H](O)[C@H](O)[C@@H](O)CO [Sorbitol] | 0.225 |
| COc1ccc(CC(=O)Nc2nc3c(s2)CCc2ccccc2-3)cc1OC | 0.052 |
| CCCCC(=O)O[C@]1(C(=O)CO)[C@@H](C)C[C@H]2[C@@H]3CCC4=CC(=O)C=C[C@]4(C)[C@@]3(F)[C@@H](O)C[C@@]21C [Betamethasone valerate (Betnovate)] | -0.191 |
| CO[C@]12C[C@@H](COC(=O)c3cncc(Br)c3)CN(C)[C@@H]1Cc1cn(C)c3cccc2c13 [Nicergoline] | 0.221 |
| CC(=O)OCC(=O)[C@@]1(O)CC[C@H]2[C@@H]3CCC4=CC(=O)CC[C@]4(C)[C@H]3C(=O)C[C@@]21C [Cortisone acetate] | -0.0998 |
| COc1cc(C(=O)N2CCOCC2)cc(OC)c1OC [Trimetozine] | 0.104 |
| FC(F)(F)c1ccc(/C=C/c2nc(COc3ccc(CCCCn4ccnn4)cc3)co2)cc1 [Mubritinib (TAK 165)] | -0.104 |
